# PubChem BioAssay AID1259425, University of Nebraska Medical Center | 2018
# Test: 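Seek colon cancer weak points whose silencing resembles KSR1 loss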 (primary screen)
# Cells: HCT116 human colon cancer cells
# Knock-down reagent: siRNA pool against human genes, 50 nM siRNA
# Measured: 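mRNA of six signature genes measured together by branched-DNA assay after 50 nM siRNA pool, blank removed, divided by geometric mean of two housekeeping genes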
# Reading the numbers: BNIP3L mRNA: higher = more BNIP3L transcript after knockdown; NDRG1 mRNA: higher = more NDRG1 transcript after knockdown; BNIP3 mRNA: higher = more BNIP3 transcript after knockdown; ALDOC mRNA: higher = more ALDOC transcript after knockdown; ACSL5 mRNA: higher = more ACSL5 transcript after knockdown
# The whole screen tested about 14,000 reagents; this is a random part of them. Some reagents were tested in more than one well and are listed for each. No sequences are given here. Not stated in the record: the time to read-out.
target,"BNIP3L mRNA, set 1","NDRG1 mRNA, set 1","BNIP3 mRNA, set 1","ALDOC mRNA, set 1","ACSL5 mRNA, set 1"
SNAPC3,0.148,0.115,0.395,0.00782,0.162
GATA1,0.0119,0.149,0.31,0.00947,0.252
TM4SF1,0.148,0.154,0.233,0.0169,0.0607
CLC,0.122,0.154,0.251,0.0196,0.262
ZSCAN18,0.138,0.317,0.169,0.0333,0.286
EBF4,0.106,0.219,0.327,0.00556,0.265
CKM,0.0608,0.0908,0.345,0.0421,0.115
SEC13,0.214,0.223,0.31,0.026,0.178
ATXN7L1,0.169,0.126,0.309,0.0927,0.202
EPHA4,0.133,0.155,0.185,0.00658,0.337
FKBP3,0.0541,0.132,0.253,0.0304,0.118
SERF2,0.0475,0.425,0.363,0.0313,0.0969
TRMT11,0.0937,0.212,0.401,0.0319,0.214
CRELD2,0.117,0.216,0.253,0.0371,0.292
IFIT5,0.0807,0.0826,0.276,0.0118,0.0888
CDH16,0.129,0.527,0.226,0.0133,0.378
ZNF217,0.0847,0.56,0.266,0.0715,0.141
GEMIN7,0.153,0.256,0.274,0.0417,0.221
PRM1,0.11,0.405,0.267,0.0334,0.262
THY1,0.0786,0.419,0.342,0.035,0.139
FABP6,0.0941,0.263,0.249,0.0294,0.103
CBFB,0.0193,0.0906,0.256,0.00819,0.217
ZNRD2,0.123,0.155,0.239,0.027,0.16
ZNF629,0.152,0.3,0.491,0.0347,0.281
DNAJC27,0.146,0.0495,0.274,0.0249,0.468
GAP43,0.129,0.21,0.409,0.00664,0.264
MBNL3,0.0991,0.0844,0.225,0.0123,0.046
TMEM41B,0.0813,0.0882,0.28,0.00963,0.112

In a second layout: results already given.
CDH16
- BNIP3L mRNA, set 1: 0.129
- NDRG1 mRNA, set 1: 0.527
- BNIP3 mRNA, set 1: 0.226
- ALDOC mRNA, set 1: 0.0133
- ACSL5 mRNA, set 1: 0.378

ZNF217
- BNIP3L mRNA, set 1: 0.0847
- NDRG1 mRNA, set 1: 0.56
- BNIP3 mRNA, set 1: 0.266
- ALDOC mRNA, set 1: 0.0715
- ACSL5 mRNA, set 1: 0.141

GEMIN7
- BNIP3L mRNA, set 1: 0.153
- NDRG1 mRNA, set 1: 0.256
- BNIP3 mRNA, set 1: 0.274
- ALDOC mRNA, set 1: 0.0417
- ACSL5 mRNA, set 1: 0.221

PRM1
- BNIP3L mRNA, set 1: 0.11
- NDRG1 mRNA, set 1: 0.405
- BNIP3 mRNA, set 1: 0.267
- ALDOC mRNA, set 1: 0.0334
- ACSL5 mRNA, set 1: 0.262

THY1
- BNIP3L mRNA, set 1: 0.0786
- NDRG1 mRNA, set 1: 0.419
- BNIP3 mRNA, set 1: 0.342
- ALDOC mRNA, set 1: 0.035
- ACSL5 mRNA, set 1: 0.139

FABP6
- BNIP3L mRNA, set 1: 0.0941
- NDRG1 mRNA, set 1: 0.263
- BNIP3 mRNA, set 1: 0.249
- ALDOC mRNA, set 1: 0.0294
- ACSL5 mRNA, set 1: 0.103

CBFB
- BNIP3L mRNA, set 1: 0.0193
- NDRG1 mRNA, set 1: 0.0906
- BNIP3 mRNA, set 1: 0.256
- ALDOC mRNA, set 1: 0.00819
- ACSL5 mRNA, set 1: 0.217

ZNRD2
- BNIP3L mRNA, set 1: 0.123
- NDRG1 mRNA, set 1: 0.155
- BNIP3 mRNA, set 1: 0.239
- ALDOC mRNA, set 1: 0.027
- ACSL5 mRNA, set 1: 0.16

The results go on:
target,"BNIP3L mRNA, set 1","NDRG1 mRNA, set 1","BNIP3 mRNA, set 1","ALDOC mRNA, set 1","ACSL5 mRNA, set 1"
RHOV,0.114,0.529,0.286,0.0128,0.0751
ARHGEF16,0.346,0.442,0.48,0.0522,0.377
TYW2,0.0781,0.11,0.275,0.0279,0.0717
FXYD7,0.0945,0.498,0.112,0.0136,0.0829
NDRG2,0.0676,0.0644,0.282,0.0174,0.0821
GRK4,0.065,0.116,0.305,0.0151,0.155
GRK4,0.062,0.0986,0.425,0.00419,0.318
EIF4A1,0.0662,0.0964,0.293,0.0082,0.0986
PKD2L2,0.172,0.0912,0.133,0.0325,0.182
PLIN2,0.143,0.192,0.398,0.0375,0.112
SEC31B,0.0606,0.094,0.325,0.0156,0.175
GTF2A2,0.0553,0.027,0.293,0.0146,0.131
FABP5,0.0785,0.0652,0.257,0.0232,0.0746
EDAR,0.0932,0.12,0.298,0.0117,0.136
BMI1,0.0687,0.175,0.211,0.0315,0.125
ZNF239,0.104,0.349,0.281,0.0325,0.108
OLA1,0.128,0.0822,0.327,0.0277,0.196
STEAP4,0.101,0.383,0.364,0.0413,0.215
ZNF512B,0.167,0.141,0.32,0.084,0.709
SMU1,0.15,0.438,0.352,0.0447,0.23
UBAP1,0.0999,0.448,0.404,0.0225,0.232
MAGI1,0.14,0.132,0.159,0.00747,0.268
PPIL4,0.103,0.213,0.15,0.025,0.21
CMBL,0.12,0.182,0.189,0.04,0.175
AAK1,0.429,0.14,0.076,0.0172,0.166
SIRAL1,0.156,0.156,0.345,0.0223,0.359
CALB1,0.233,0.217,0.33,0.0305,0.124
TNP1,0.0644,0.274,0.377,0.0262,0.139
ZBTB16,0.0692,0.224,0.366,-0.0266,0.253
NAA60,0.207,0.648,0.342,0.119,0.232
SLC6A1,0.139,0.277,0.111,0.0417,0.353
LHX4,0.099,0.113,0.332,0.00702,0.188
SERPIND1,0.152,0.372,0.419,0.0226,0.267
MSRB2,0.0952,0.0841,0.227,0.0237,0.17
ING2,0.153,0.397,0.485,0.0127,0.326
